Source: ChEMBL document CHEMBL3988442, “University of Dundee, Small-Polar-MMV Screening Library” (2021).

By UniProt entry, the sequences of proteins in these tests, tags left out.
UniProt E9BF75, entry or part of it: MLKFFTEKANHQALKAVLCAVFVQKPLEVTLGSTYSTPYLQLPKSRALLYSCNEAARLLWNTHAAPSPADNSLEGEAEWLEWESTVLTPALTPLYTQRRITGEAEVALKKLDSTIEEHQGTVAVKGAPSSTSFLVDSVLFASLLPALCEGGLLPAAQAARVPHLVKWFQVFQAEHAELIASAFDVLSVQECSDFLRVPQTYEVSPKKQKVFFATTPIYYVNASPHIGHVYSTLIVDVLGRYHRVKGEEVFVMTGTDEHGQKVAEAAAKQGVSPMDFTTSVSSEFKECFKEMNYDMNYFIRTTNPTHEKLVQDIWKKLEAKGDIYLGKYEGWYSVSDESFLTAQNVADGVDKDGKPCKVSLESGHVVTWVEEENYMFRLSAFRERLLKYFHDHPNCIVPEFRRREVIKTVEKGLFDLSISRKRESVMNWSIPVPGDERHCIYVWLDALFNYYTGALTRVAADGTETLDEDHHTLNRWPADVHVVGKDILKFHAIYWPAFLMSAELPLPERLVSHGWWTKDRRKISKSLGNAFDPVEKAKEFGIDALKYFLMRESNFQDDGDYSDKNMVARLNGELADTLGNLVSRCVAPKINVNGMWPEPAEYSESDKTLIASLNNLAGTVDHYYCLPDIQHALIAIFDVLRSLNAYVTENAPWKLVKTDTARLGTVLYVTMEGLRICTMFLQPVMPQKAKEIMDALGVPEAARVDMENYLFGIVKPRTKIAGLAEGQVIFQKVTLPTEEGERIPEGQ

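Methionyl-tRNA synthetase (putative), Leishmania donovani (UniProt E9BF75). Primary screen of methionyl-tRNA synthetase; the read-out is not stated. The test concentration is not given. The values are filed as inhibition. About 68,000 compounds were tested under these conditions; 0.035% (about 24) showed 50% or more at least once.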

All values are in %. The record does not define 0% and 100%; most values in the screen are far below 50% and negative numbers occur (in some assays of this library far below -100). This is an unselected part of the compounds tested.

Compound,Inhibition
CN(C)Cc1ccnc(C2CN(CCc3ccccc3)CCO2)n1 (centres undefined),7.91
COCCn1/c(=N\C(=O)CN(C)S(C)(=O)=O)sc2cccc(F)c21,-8.696
CCn1ncnc1C(C)NC(=O)CC1CCN(C(C)C)CC1 (centres undefined),0.3436
O=C(C1CCOC1)N1CCC2(CC1)COC2 (centres undefined),15.69
CC(=O)N1CCN(C(=O)Nc2ccccc2Cl)[C@H]2CS(=O)(=O)C[C@H]21,17.98
COc1ccccc1[C@@H]1CN(Cc2cc(C(C)(C)C)[nH]n2)C[C@H]1C(=O)O,10.62
Cn1c(-c2ccccc2Cl)nc2cc(C(=O)NCC3(CO)CC3)cnc21,7.829
CC(C)COC(C)C(=O)NCc1ccc(OC(C)C)nc1 (centres undefined),19.44
CC(C)NC(=O)C1CCC2(CCN(Cc3cnn(C)c3)CC2)C1 (centres undefined),11.68
O=C(NC1CCC1)[C@@H]1CCO[C@@H]2CCN(C3CCCC3)C[C@H]21,11.11
COc1ccc(CC(=O)N2CCCC(n3cccn3)C2)cc1F (centres undefined),22.25
Cc1ccc(CNC(=O)N(C)Cc2cnn(C)c2)s1,12.38
N#Cc1cccc(CN2CCn3cc(Cn4cccn4)nc3C2)c1,11.82
O=C1COc2cc(C(=O)N3CCCC(n4ccnc4)C3)ccc2N1 (centres undefined),10.94
CCN(C(=O)NCc1ccc(C)cc1OC)C(C)c1cccnc1 (centres undefined),13.49
Cc1cccc(CN2C[C@@H]3COC[C@]3(COc3ccc(C#N)cn3)C2)n1,8.5
COCCN(CCOC)C(=O)c1cnn(C)c1-n1c(C)ccc1C,13.84
CCc1nc2c(c(N3CCOCC3)n1)CCN(C(=O)N1CCCC1)CC2,8.711
COCCOc1ccc(S(=O)(=O)Nc2cccc(O)c2F)cc1C,17.02
CC(C)(C)c1nc(CC(=O)N2CCCC(n3cncn3)C2)cs1 (centres undefined),12.22
CN1CCOC(CNCc2coc(-c3ccccc3)n2)C1 (centres undefined),9.859
CN(CCCc1cnn(C)c1)Cc1cc2n(n1)CCNC2,16.51
CC(C)CN(CC(O)c1ccc(F)cc1)C(=O)c1cnsn1 (centres undefined),13.45
CC(=O)Nc1cccc(C(=O)Nc2cnc3n2CCCC3)c1,18.58
Cc1noc(C)c1CN(C)CC(c1cccs1)N1CCOCC1 (centres undefined),19.55
O=C(c1cc(F)ccc1Br)N1CCN(C(=O)C2CC2)CC1,3.881
COC1CCN(CC(=O)NCc2ccc(OCC(N)=O)cc2)CC1,13.05
Cc1nc(CN2CCCC(CCc3cccc(C(F)(F)F)c3)C2)co1 (centres undefined),10.65
CS(=O)(=O)NC(=O)c1ccn(-c2ccc(Cl)c(Cl)c2)n1,11.48
COc1ccc(C2CC(=O)Oc3cc(C)[nH]c(=O)c32)c(OC)c1 (centres undefined),13.51
CN(C)c1ncc(-c2cc(C(=O)NC(C)(C)CO)n(CC3CC3)c2)cn1,5.519
CN(C)C(=O)C1CN(Cc2ccccn2)CCN(S(C)(=O)=O)C1 (centres undefined),10.42
CCOc1ccccc1NC(=O)N(CCO)Cc1ccsc1,-8.189
CNc1snc(C)c1C(=O)N1CCC(Nc2ccc(C)nn2)CC1,16.32
CNC(=O)[C@H]1C[C@@H]2CN(S(=O)(=O)c3ccccc3)C[C@@H]2N1C,8.661
Cc1nc(C)n(CC2CCCN2CC(=O)Nc2cc(C(C)C)no2)n1 (centres undefined),12.6
CCc1nnc(N2C[C@@H](CN(C)CCO)[C@@H](CO)C2)s1,17.42
O=c1[nH]cc(N2CCCCCC2)c(=O)[nH]1,3.235
COC(=O)c1cccc(C2CNCCN2C(C)=O)c1 (centres undefined),-1.246
O=S(=O)(CCNC1CCc2ncnn2C1)c1ccccc1 (centres undefined),1.742
Cc1nnc(CN(C)Cc2nc3c(s2)CCCC3)o1,17.29
CN(CCN1CCCCCC1)Cc1cnc(N)nc1,13.77
CS(=O)(=O)c1ccc(C(O)CN2CCC(c3ccn[nH]3)CC2)cc1 (centres undefined),8.92
CSCc1cc(F)ccc1CNC(=O)N1CCC(CO)CC1,-2.527
CNC(=O)c1cccc(CN2CCN(C3=NCC(C)(C)S3)CC2)c1,17.02
CCC1CN(C(=O)Nc2cnc3c(cnn3C(C)C)c2)CCO1 (centres undefined),11.75
O=S(=O)(c1cccs1)N1CCN2C[C@H](OCC3CC3)C[C@H]2C1,10.95
Cc1ccnc(CC(C)N(C)c2cc(CN)nc(C)n2)c1 (centres undefined),-14.5
CC(C)Cc1cc(NC(=O)c2ccc(=O)[nH]n2)n(C)n1,14.17
COc1cccc(OC)c1C(=O)N1C[C@@H](CN(C)C)[C@@H](CO)C1,18.44
CNC(=O)Cc1nc(CNc2ccc(SC)c(F)c2)cs1,7.258
CC(C)(CNc1cc(F)ccc1F)S(C)(=O)=O,6.183
COc1ccc(CNC(=O)Cc2csc(C(C)=O)c2)cc1,13.19
CN(CCC#N)C(=O)Cc1csc(-c2ncccn2)n1,-3.014
Cc1nn(C)c2nc(N3CCN(Cc4nccn4C)CC3)sc12,19.06
CCc1cc(C(=O)N[C@@H]2CC[C@@H](N3CCOCC3)[C@@H]2O)no1,18.62
CCN(CC)CC[C@H]1CN(C(=O)c2ccc(F)cc2)CC[C@H]1CC(=O)O,8.791
Cc1cc(CN(C)C(=O)Nc2cnc3c(c2)c(C)nn3C)no1,10.68
C/C(NC(=O)c1ccco1)=C1/C(=O)C[C@@H]2[C@H]1C2(C)C,0.5376
CSCC[C@H](N)C(=O)NCc1cc2n(n1)CCCN(C(=O)C1CCC1)C2,7.965
N#Cc1ccc(CN2C[C@@H]3OCC(=O)N(CC(N)=O)[C@@H]3C2)cc1,15.79
c1ccc2oc(CN3CCCCC3Cn3cncn3)nc2c1 (centres undefined),8.889
Cc1cc(C(=O)N2CCC(O)(Cn3c(C)cc4ccncc43)CC2)on1,16.83
CC(C)C(=O)Nc1cccc(CNC(=O)CSCc2ccccn2)c1,6.984
Cn1ccnc1CN1CCCN(C(=O)COCC2CC2)CC1,19.77
COCCCN(C)c1nc(-c2ccncc2)nc(C)c1C,13.17
Cc1cnn(CC2CN(Cc3csc(C4CCCC4)n3)CCO2)c1 (centres undefined),16.48
Cc1nc[nH]c1CN(C)Cc1cnn(-c2ccc(F)cc2)c1,2.168
CC(O)CN1CCC(CNCc2cccc(C(=O)N(C)C)c2)CC1 (centres undefined),7.055
CCc1nc(CC2CN(c3ncnc4nc(C)cc(C)c34)CCO2)no1 (centres undefined),8.869
Cc1cc2c(=O)n3c(nc2s1)CCN(Cc1c[nH]cn1)CC3,13.5
O=C(NC1CCCN(c2ccccc2Cl)C1)c1c[nH]nn1 (centres undefined),19.63
COc1cc2c(cc1OC)CN(Cc1ncccc1C(=O)O)CC2,11.98
CCN(CC)c1nc2sc(C(=O)NCC(=O)OC)cc2s1,8.042
CC(O)c1cn(CC2CCN(C(=O)CN(C)C(C)C)CC2)nn1 (centres undefined),5.025
CC(=O)N1CCN(C(=O)c2sccc2Br)CC1,4.945
Cc1csc2c(=O)n(CCN3CCNCC3)cnc12,2.091

Some entries from above, unchanged:

Result for O=C(C1CCOC1)N1CCC2(CC1)COC2 (centres undefined) was 15.69%.
Result for CCn1ncnc1C(C)NC(=O)CC1CCN(C(C)C)CC1 (centres undefined) was 0.3436%.
Result for Cc1ccc(CNC(=O)N(C)Cc2cnn(C)c2)s1 was 12.38%.
Result for CC(C)Cc1cc(NC(=O)c2ccc(=O)[nH]n2)n(C)n1 was 14.17%.
Result for CCN(CC)c1nc2sc(C(=O)NCC(=O)OC)cc2s1 was 8.042%.
Result for CSCc1cc(F)ccc1CNC(=O)N1CCC(CO)CC1 was -2.527%.
Result for CN(CCN1CCCCCC1)Cc1cnc(N)nc1 was 13.77%.
Result for COc1ccc(CNC(=O)Cc2csc(C(C)=O)c2)cc1 was 13.19%.